# Data reported in the supplement of paper PMC8551327.
# Structures can show the parent of a compound that is named as a salt. The list shows a part of the results. No stated cut-off is given here; in the data, active = 1.25 or more and inactive = the rest. Most values come without repeats; read them as rough.
# System: Kcc2-LUC knock-in mouse primary cortical neurons (Kcc2 promoter reporter)
# Assay: Kcc2 promoter-driven luciferase activity relative to vehicle control (fold of vehicle (ratio)); higher = stronger Kcc2 promoter activation (Kcc2 expression enhancer)
# Conditions: 100 nM; 48 h
row,Compound,Kcc2 promoter-driven luciferase activity
1,CN1CCc2cc3c(cc2C(=O)Cc2ccc4c(c2C1)OCO4)OCO3 [Protopine Hydrochloride],active: 1.57
2,"Clc1cc2nc[nH]c2cc1Cl [5,6-Dichloro-1H-benzimidazole]",inactive: 0.92
3,Cc1cc(=O)[nH]c(NN2C(Cl)C(=O)C2c2cccc(Cl)c2)n1 (stereo not drawn),inactive: 1.11
4,Nc1ccccc1N [O-Phenylenediamine],active: 1.31
5,CC1CCCC(C(=O)/C(=C/c2cccc(Cl)c2)C(=O)C(=O)O)C1 (stereo not drawn),inactive: 0.88
6,C(=N\NC1=NCCN1)/c1c2ccccc2c(/C=N/NC2=NCCN2)c2ccccc12,inactive: 0.82
7,O=c1[nH]c(=O)n(C2OC(CO)C(O)C2O)cc1F (stereo not drawn) [5-Fluorouracil arabinoside],inactive: 0.78
8,CON(C)C(=O)C1CCCO1 (stereo not drawn) [N-methoxy-N-methyloxolane-2-carboxamide],inactive: 1.24
